Measurements from patent US20080233118A1.
No constants are given. Whether binding was seen depends on the method and setting. Some entries that bind do so weakly or less than the wild type.

The chains behind the UniProt entries cited, without tags or fusion partners. Where a name states a change or a piece, a line headed by the entry shows the natural chain unless it says otherwise.
UniProt P09603: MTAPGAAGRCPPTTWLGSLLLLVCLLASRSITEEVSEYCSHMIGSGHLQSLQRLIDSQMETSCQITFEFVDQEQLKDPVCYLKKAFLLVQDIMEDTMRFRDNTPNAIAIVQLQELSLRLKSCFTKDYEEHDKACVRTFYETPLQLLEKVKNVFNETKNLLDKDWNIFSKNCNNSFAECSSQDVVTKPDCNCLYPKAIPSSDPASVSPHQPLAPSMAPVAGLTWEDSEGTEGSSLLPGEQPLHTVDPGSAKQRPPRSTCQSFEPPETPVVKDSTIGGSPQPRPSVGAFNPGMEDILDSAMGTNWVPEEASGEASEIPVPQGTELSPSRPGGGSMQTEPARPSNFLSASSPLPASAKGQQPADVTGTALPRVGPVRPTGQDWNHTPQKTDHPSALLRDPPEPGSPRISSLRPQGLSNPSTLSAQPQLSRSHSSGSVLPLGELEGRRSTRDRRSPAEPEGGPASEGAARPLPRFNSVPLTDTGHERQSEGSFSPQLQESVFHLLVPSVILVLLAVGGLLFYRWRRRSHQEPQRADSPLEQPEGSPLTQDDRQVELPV

Biological target: human M-CSF (macrophage colony stimulating factor) (human) (UniProt P09603)
Test: ELISA screening of hybridoma clones; affinity analysis

binding: binds
B1: M-CSF-specific murine antibody MC1 (antibody, mouse IgG2a, kappa, V domains shown)
VH: EVKLVESGGGLVQPGGSLKLSCATSGFTFSDYYMYWVRQTPEKRLEWVAYISNGGGSTYYPDTVKGRFTISRDNAKNTLYLQMSRLKSEDTAMYYCARQGSYGYPFAYWGQGTLVTVSA
VL: AIQMTQTTSSLSASLGDRVTISCSASQGISNYLNWYQQKPDGTVKLLIYYTSSLHSGVPSRFSGSGSGTDYSLTISNLEPEDIATYYCQQYSKLPWTFGGGTKLEIKR
